PubChem BioAssay AID652272 – Drosophila RNAi Screening Center, 2013
The deposit covers about 21,000 reagents; shown is an unselected part of those that have a named target and a result. In the full data, 503 (2.4%) were called active. 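Raw plate light values, not normalised; calls rest on replicate z-scores that were not deposited; hits include reporter decreases as well as increases.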 No sequences are given here. Not given: the amount of reagent, the time to read-out.

- Test: 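Genome-wide knock-down search for components of Hedgehog signalling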 (primary screen)
- Cell system: Drosophila clone 8 (Cl8) cells
- Reagents: long dsRNA against Drosophila genes
- Detection: 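Firefly light from a Hedgehog-responsive ptc promoter reporter and Renilla reference light, both read on a plate reader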
- Reading the numbers: firefly Hh reporter signal: higher = more ptc reporter light; Renilla reference signal: higher = more Renilla control light
- Active means: 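Hit when the z-score averaged over two replicates is under -2 or over +3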
- Meaning of the calls: active = hit: reporter lowered or raised; inactive = not a hit

| target gene | DRSC id | firefly Hh reporter signal, replicate 1 | firefly Hh reporter signal, replicate 2 | Renilla reference signal, replicate 1 | Renilla reference signal, replicate 2 | activity call |
| --- | --- | --- | --- | --- | --- | --- |
| ND-24 | DRSC19960 | 1.35e5 | 1.54e5 | 3137 | 3328 | inactive |
| CG10845 | DRSC14272 | 5.02e5 | 1.31e5 | 24234 | 3772 | inactive |
| CG9777 | DRSC20208 | 98469 | 2.13e5 | 3708 | 9089 | inactive |
| CG12725 | DRSC19501 | 78151 | 2.33e5 | 1316 | 10226 | inactive |
| CG31097 | DRSC14666 | 5.58e5 | 1.61e5 | 28627 | 4320 | inactive |
| Nlg1 | DRSC12485 | 2.39e5 | – | 3872 | – | inactive |
| Nlg1 | DRSC12532 | 46134 | 93328 | 2156 | 2716 | inactive |
| Nlg1 | DRSC12533 | 66103 | 1.50e5 | 2725 | 3944 | inactive |
| Nlg1 | DRSC12539 | 54816 | 78326 | 2054 | 2141 | inactive |
| Rtc1 | DRSC20285 | 1.04e5 | 49895 | 2134 | 987 | inactive |
| alphaCOP | DRSC08706 | 58280 | 40967 | 4288 | 3238 | active |
| ksr | DRSC12379 | 71874 | 95494 | 2680 | 2512 | inactive |
| CG6209 | DRSC06968 | 93737 | 46109 | 2195 | 4115 | inactive |
| SmydA-3 | DRSC02565 | 1.12e5 | 60311 | 3028 | 4941 | inactive |
| SmydA-3 | DRSC02566 | 73835 | 41579 | 2114 | 3579 | inactive |
| QIL1 | DRSC10888 | 75584 | – | 4581 | 3152 | inactive |
| Cpr31A | DRSC02779 | 85104 | 45680 | 2357 | 4935 | inactive |
| CG5768 | DRSC15870 | 1.20e5 | 1.27e5 | 4752 | 4825 | inactive |
| Gr59b | DRSC04179 | 84208 | 54836 | 1324 | 4935 | inactive |
| CG16896 | DRSC04284 | 1.00e5 | 49157 | 3936 | 873 | inactive |
| SoYb | DRSC02901 | 1.12e5 | 31443 | 2864 | 4775 | inactive |
| CG15599 | DRSC19668 | 49349 | 1.65e5 | 1648 | 6906 | inactive |
| CG14984 | DRSC08442 | 78427 | 34736 | 1895 | 3040 | inactive |

4 of these entries, reformatted:
target gene,DRSC id,"firefly Hh reporter signal, replicate 1","firefly Hh reporter signal, replicate 2","Renilla reference signal, replicate 1","Renilla reference signal, replicate 2",activity call
CG12725,DRSC19501,78151,2.33e5,1316,10226,inactive
CG31097,DRSC14666,5.58e5,1.61e5,28627,4320,inactive
Nlg1,DRSC12485,2.39e5,,3872,,inactive
Nlg1,DRSC12532,46134,93328,2156,2716,inactive
